Measured values from article PMC11078746 (Nature, 2024).
“And” between values parts separate entries of the source, which are not always exact repeats. Equal values may be shown once. Further values from the same series stand in other lists.

System: SW48 xenografts
Assay: SW48 cell-derived xenograft efficacy, HRO761 orally once daily
Type: in vivo, mouse
Method: All animal studies were conducted in accordance with ethics and procedures covered by permit BS-2275 and BS-1975 issued by the Kantonales Veterinäramt Basel-Stadt and in strict adherence to guidelines of the Eidgenössisches Tierschutzgesetz and the Eidgenössische Tierschutzverordnung, Switzerland. All animal studies were approved by the internal ethics committee. All animals had access to food and water ad libitum and were identified with transponders. They were housed in a specific-pathogen-free facility in IVC racks under a 12 h–12 h light–dark cycle. To establish cell-line-derived xenograft models, 6–7-week-old female athymic nude (Crl:NU(NCr)-Foxn1^nu) or SCID-BEIGE (CB17.Cg-PrkdcscidLystbg-J/Crl) mice from Charles River were engrafted subcutaneously with 5 million tumour cells in HBSS (H6648, Sigma-Aldrich). For SNU-407, Lovo, IM95, RL95.2, Ishikawa and IGROV-1, the cells were concentrated in 50% Matrigel (354234, Corning). Patient-derived xenografts were induced and expanded by transplantation as previously described. […] For the efficacy experiment, mice were randomized into groups (n = 5–6) for a mean tumour size of 100–150 mm^3. […] Blood samples were collected on day 7 and 91. […] Tumour responses are reported with the measures of tumour volumes from the treatment start. […] Animals were randomized (n = 3) and tumour samples were collected at 0, 1, 4, 8 and 24 h on the first day and then collected 4 h after the last treatment on day 3, 8, 10, 14 (including a 24 h timepoint), 17 and 21. Tumours were excised, weighed, either frozen in liquid nitrogen and cryogenic dry pulverized with the CryoPrep system (model CP-02, Covaris) or processed to FFPE after fixation. […] On day 12, blood samples were collected for PK analysis. On the last day (3 h after the last treatment), tumours were excised, weighed, frozen in liquid nitrogen and cryogenic dry pulverized for PD analysis.

## CCc1c(N2CCN(C(=O)c3ncnc(C)c3O)CC2)c(=O)n2nc(C3=CCOCC3)nc2n1CC(=O)Nc1ccc(C(F)(F)F)cc1Cl [HRO761]
HRO761 20mg/kg, day 0 post 1st dose, 20 mg/kg
  TVol, individual mouse: 91.4 mm3 and 133.99 mm3 and 129.12 mm3 and 209.89 mm3 and 178.46 mm3
HRO761 20mg/kg, day 3 post 1st dose, 20 mg/kg
  TVol, individual mouse: 109.33 mm3 and 145.87 mm3 and 142.14 mm3 and 232.83 mm3 and 230.79 mm3
HRO761 20mg/kg, day 7 post 1st dose, 20 mg/kg
  TVol, individual mouse: 169.31 mm3 and 145.26 mm3 and 155.37 mm3 and 364.75 mm3 and 235.61 mm3
HRO761 20mg/kg, day 10 post 1st dose, 20 mg/kg
  TVol, individual mouse: 161.6 mm3 and 137.16 mm3 and 145.85 mm3 and 274.94 mm3 and 275.52 mm3
HRO761 20mg/kg, day 31 post 1st dose, 20 mg/kg
  TVol, individual mouse: 271.88 mm3 and 215.2 mm3 and 305.14 mm3 and 328.19 mm3 and 465.72 mm3
HRO761 20mg/kg, day 35 post 1st dose, 20 mg/kg
  TVol, individual mouse: 291.72 mm3 and 241.46 mm3 and 425.25 mm3 and 407.95 mm3 and 536.46 mm3
HRO761 20mg/kg, day 38 post 1st dose, 20 mg/kg
  TVol, individual mouse: 300.6 mm3 and 264.18 mm3 and 444.73 mm3 and 468.87 mm3 and 715.39 mm3
HRO761 20mg/kg, day 42 post 1st dose, 20 mg/kg
  TVol, individual mouse: 368.6 mm3 and 392.16 mm3 and 674.98 mm3 and 716.64 mm3 and 982.57 mm3
HRO761 20mg/kg, day 45 post 1st dose, 20 mg/kg
  TVol, individual mouse: 371.24 mm3 and 385.6 mm3 and 783.12 mm3 and 843.85 mm3 and 911.15 mm3
HRO761 40mg/kg, day 0 post 1st dose, 40 mg/kg
  TVol, individual mouse: 200.29 mm3 and 110.04 mm3 and 161.38 mm3 and 114.46 mm3 and 156.76 mm3
HRO761 40mg/kg, day 3 post 1st dose, 40 mg/kg
  TVol, individual mouse: 220.72 mm3 and 133.24 mm3 and 168.6 mm3 and 128.25 mm3 and 160.45 mm3
HRO761 40mg/kg, day 7 post 1st dose, 40 mg/kg
  TVol, individual mouse: 301.07 mm3 and 120.77 mm3 and 173.59 mm3 and 120.92 mm3 and 189.14 mm3
HRO761 40mg/kg, day 10 post 1st dose, 40 mg/kg
  TVol, individual mouse: 217.52 mm3 and 71.6 mm3 and 151.81 mm3 and 127.22 mm3 and 165.14 mm3
HRO761 40mg/kg, day 31 post 1st dose, 40 mg/kg
  TVol, individual mouse: 36.14 mm3 and 32.93 mm3 and 32.1 mm3 and 36.62 mm3 and 48.39 mm3
HRO761 40mg/kg, day 35 post 1st dose, 40 mg/kg
  TVol, individual mouse: 18.7 mm3 and 35.1 mm3 and 35.82 mm3 and 29.2 mm3 and 45.59 mm3
HRO761 40mg/kg, day 38 post 1st dose, 40 mg/kg
  TVol, individual mouse: 18.57 mm3 and 44.23 mm3 and 32.27 mm3 and 29.68 mm3 and 41.76 mm3
HRO761 40mg/kg, day 42 post 1st dose, 40 mg/kg
  TVol, individual mouse: 17.27 mm3 and 43.27 mm3 and 33.51 mm3 and 32.53 mm3 and 57.9 mm3
HRO761 40mg/kg, day 45 post 1st dose, 40 mg/kg
  TVol, individual mouse: 17.95 mm3 and 55.4 mm3 and 29.6 mm3 and 29.3 mm3 and 41.69 mm3
HRO761 40mg/kg, day 49 post 1st dose, 40 mg/kg
  TVol, individual mouse: 14.31 mm3 and 73.48 mm3 and 28.77 mm3 and 23.48 mm3 and 46.33 mm3
HRO761 40mg/kg, day 52 post 1st dose, 40 mg/kg
  TVol, individual mouse: 13.49 mm3 and 67.12 mm3 and 35.7 mm3 and 19.69 mm3 and 42.88 mm3
HRO761 40mg/kg, day 56 post 1st dose, 40 mg/kg
  TVol, individual mouse: 4.93 mm3 and 64.82 mm3 and 41.63 mm3 and 35.01 mm3 and 85.69 mm3
HRO761 40mg/kg, day 59 post 1st dose, 40 mg/kg
  TVol, individual mouse: 15.84 mm3 and 71.64 mm3 and 53.36 mm3 and 40.6 mm3 and 98.1 mm3
HRO761 40mg/kg, day 63 post 1st dose, 40 mg/kg
  TVol, individual mouse: 8.78 mm3 and 134.59 mm3 and 55.54 mm3 and 38.79 mm3 and 149.74 mm3
HRO761 40mg/kg, day 66 post 1st dose, 40 mg/kg
  TVol, individual mouse: 7.59 mm3 and 146.67 mm3 and 66.42 mm3 and 41.7 mm3 and 161.69 mm3
HRO761 40mg/kg, day 70 post 1st dose, 40 mg/kg
  TVol, individual mouse: 7.7 mm3 and 179.07 mm3 and 96.05 mm3 and 56.04 mm3 and 186.46 mm3
HRO761 40mg/kg, day 73 post 1st dose, 40 mg/kg
  TVol, individual mouse: 11.2 mm3 and 180.6 mm3 and 110.85 mm3 and 54.64 mm3 and 234.87 mm3
HRO761 40mg/kg, day 76 post 1st dose, 40 mg/kg
  TVol, individual mouse: 9.42 mm3 and 220.94 mm3 and 148.46 mm3 and 51.2 mm3 and 265.63 mm3
HRO761 40mg/kg, day 79 post 1st dose, 40 mg/kg
  TVol, individual mouse: 9.85 mm3 and 268.86 mm3 and 198.08 mm3 and 73.28 mm3 and 373.46 mm3
HRO761 40mg/kg, day 83 post 1st dose, 40 mg/kg
  TVol, individual mouse: 11.67 mm3 and 324.63 mm3 and 209.08 mm3 and 84.28 mm3 and 447.19 mm3
HRO761 40mg/kg, day 86 post 1st dose, 40 mg/kg
  TVol, individual mouse: 12.85 mm3 and 494.2 mm3 and 228.92 mm3 and 87.95 mm3 and 483.08 mm3
HRO761 40mg/kg, day 90 post 1st dose, 40 mg/kg
  TVol, individual mouse: 15.57 mm3 and 596.3 mm3 and 289.97 mm3 and 105.44 mm3 and 637.89 mm3
HRO761 40mg/kg, day 92 post 1st dose, 40 mg/kg
  TVol, individual mouse: 13.53 mm3 and 633.18 mm3 and 267.13 mm3 and 107.38 mm3 and 649.51 mm3
HRO761 60mg/kg, day 0 post 1st dose, 60 mg/kg
  TVol, individual mouse: 142.46 mm3 and 137.81 mm3 and 95.26 mm3 and 221.73 mm3 and 145.7 mm3
HRO761 60mg/kg, day 3 post 1st dose, 60 mg/kg
  TVol, individual mouse: 194.8 mm3 and 181.61 mm3 and 92.95 mm3 and 290.26 mm3 and 162.3 mm3
HRO761 60mg/kg, day 7 post 1st dose, 60 mg/kg
  TVol, individual mouse: 182.62 mm3 and 152.01 mm3 and 74.39 mm3 and 288.37 mm3 and 144.35 mm3
HRO761 60mg/kg, day 10 post 1st dose, 60 mg/kg
  TVol, individual mouse: 137 mm3 and 131.04 mm3 and 71.66 mm3 and 201.61 mm3 and 154.78 mm3
HRO761 60mg/kg, day 31 post 1st dose, 60 mg/kg
  TVol, individual mouse: 48.86 mm3 and 40.06 mm3 and 18.15 mm3 and 42.15 mm3 and 40.04 mm3
HRO761 60mg/kg, day 35 post 1st dose, 60 mg/kg
  TVol, individual mouse: 38.59 mm3 and 37.63 mm3 and 13.44 mm3 and 52.03 mm3 and 36.47 mm3
HRO761 60mg/kg, day 38 post 1st dose, 60 mg/kg
  TVol, individual mouse: 34.79 mm3 and 32.21 mm3 and 13.1 mm3 and 42.19 mm3 and 38.3 mm3
